Data set [1] has as its system L. infantum promastigotes. Kind of data set: Antileishmanial in vitro promastigote assay. The conditions noted are these: SI = CC50/IC50 (J774).
Data set [2] has as its system L. amazonensis promastigotes. Kind of data set: Antileishmanial in vitro promastigote assay. The conditions noted are these: SI = CC50/IC50 (J774).
Data set [3] has as its system L. guyanensis promastigotes. Description: Antileishmanial in vitro promastigote assay. Conditions: SI = CC50/IC50 (J774).
In another data set the test system is L. infantum amastigotes. Description: Intracellular amastigote assay (fluorometric test). It is filed as cell-based. Conditions: SI = CC50/IC50 (J774).
Data set [4] concerns L. amazonensis amastigotes. Kind of data set: Intracellular amastigote assay (fluorometric test). Format: cell-based. Conditions: SI = CC50/IC50 (J774).
Data set [5] relates to L. donovani promastigotes. Kind of data set: Antileishmanial in vitro promastigote assay. Conditions: SI = CC50/IC50 (J774).
For data set [6], the system named is L. donovani promastigotes. The conditions noted are these: cited from earlier work.
In the next data set the test system is P. falciparum 3D7 strain. Kind of data set: Antiplasmodial DNA stain-based growth assay. Format: cell-based, Plasmodium falciparum. The conditions noted are these: EC50 lower values of cytotoxic activity/EC50 antimalarial activity. As for the experimental part:
(§1) Assays were performed by using previously described DNA stain-based assay and methods, including cytotoxicity assays.

Data set [7] concerns L. amazonensis promastigotes. Also on record: method as in PMID 30840453. The conditions noted are these: C18-congeners, ratio CC50 / IC50; cited from earlier work.
The subject of data set [8] is L. infantum promastigotes. Further details: method as in PMID 30840453. Conditions: C18-congeners, ratio CC50 / IC50; cited from earlier work.
Data set [9] relates to L. guyanensis promastigotes. Further details: method as in PMID 30840453. Conditions: C18-congeners, ratio CC50 / IC50; cited from earlier work.
Another data set has as its system P. falciparum K1 strain. Kind of data set: Antiplasmodial DNA stain-based growth assay. Format: cell-based, Plasmodium falciparum. Conditions: EC50 lower values of cytotoxic activity/EC50 antimalarial activity. As for the experimental part: as §1

Structures are written as SMILES. Read-outs that look alike come from different tables or passages of the source.

Take `CC(C)c1cc2c(cc1O)C1(C)CCCC(C)(C(=O)O)C1CC2=O` (single isomer, unassigned; (+)) [Compound 8a, (+)-4-epi-liquiditerpenoic acid A]: the “L. infantum SI” value in data set [1] was more than 2.0; in the data set with L. infantum amastigotes it was more than 9.9. For the same compound, the results for the “L. amazonensis SI” value in data set [2] and in data set [4] were more than 2.1 and more than 9.3, respectively. In addition, the “L. guyanensis SI” value in data set [3] was more than 67. Also, in [5], the “L. donovani SI” value is reported as more than 2.4.

Consider `CC(C)c1cc2c(cc1O)[C@@]1(C)CCCC(C)(C)[C@@H]1CC2` [Compound 1, ferruginol], for which, in data set [6] (versus Vero), the “L. donovani SI” value was more than 1.4.

`COC(=O)[C@@]1(C)CCC[C@]2(C)c3cc(O)c(C(C)C)cc3CC[C@@H]12` [Compound 12]: the “P. falciparum 3D7 SI” value in the data set with P. falciparum 3D7 strain was found to be 5.3.

As to `CC(C)c1cc2c(cc1O)[C@@]1(C)CCC[C@](C)(C(=O)O)[C@@H]1CC2` [Compound 13, lambertic acid], the results for the “L. infantum SI” value (in [1]; in the data set with L. infantum amastigotes) were 7.5 and more than 11.3, respectively. The “L. amazonensis SI” value in data set [2] was 4.2; in data set [4], more than 24.7. Besides, the “L. guyanensis SI” value in data set [3] is given as 12.2. Also, in data set [5], the “L. donovani SI” value turned out to be 17.0.

Turning to `CC(C)c1cc2c(cc1O)[C@@]1(C)CCC[C@@](C)(C(=O)O)C1CC2` (stereo partly shown) [Compound 13b, 12-hydroxydehydroabietic acid], the “L. amazonensis SI” value in [7] is 1.6. Further, in [8], the “L. infantum SI” value was 2.0. Besides, the “L. donovani SI” value in data set [6] (C18-congeners, ratio CC50 / IC50) is reported as 1.5. In data set [9], the “L. guyanensis SI” value is listed as 1.2.

As to `CC(C)c1cc2c(cc1O)[C@@]1(C)CCC[C@](C)(CO)[C@@H]1CC2` [Compound 14, 19-hydroxyferruginol], in the data set on P. falciparum K1 strain, the “P. falciparum K1 SI” value turned out to be 2.2.

Take `CC(C)c1cc2c(cc1O)[C@@]1(C)CCC[C@](C)(CO)[C@@H]1CC2=O` [Compound 15, 19-hydroxysugiol]: in the data set on P. falciparum K1 strain, the “P. falciparum K1 SI” value is 2.6.

Turning to `COC(=O)[C@@]1(C)CCC[C@]2(C)c3cc(O)c(C(C)C)cc3C(=O)C[C@@H]12` [Compound 16], the figures for the “L. infantum SI” value (in data set [1]; in the data set on L. infantum amastigotes) were more than 19.8 and more than 12.1, respectively. Further, the “L. amazonensis SI” value is recorded as more than 23.5 in [2] and more than 12.4 in data set [4]. The “L. guyanensis SI” value in data set [3] was more than 35.7. Also, in the data set with P. falciparum K1 strain, the “P. falciparum K1 SI” value was 6.4. In addition, the “P. falciparum 3D7 SI” value with P. falciparum 3D7 strain is reported as 5.2. In addition, in data set [5], the “L. donovani SI” value is reported as more than 16.9.
